Test results as given in patent US6821972B2, “3-heterocyclylpropanohydroxamic acid PCP inhibitors” (Pfizer Inc., priority 2001, dated 2004).
Some of these results come from one statement about several compounds together.

molecular target: T1, Human PCP (Homo sapiens, UniProt P13497); experiment: PCP inhibition, fluorogenic PCP cleavage assay; type: biochemical
T1 construct: made in house; host or cells: stably transfected CHO cells (secreted, purified from supernatant)
T1 sequence (P13497 121-986): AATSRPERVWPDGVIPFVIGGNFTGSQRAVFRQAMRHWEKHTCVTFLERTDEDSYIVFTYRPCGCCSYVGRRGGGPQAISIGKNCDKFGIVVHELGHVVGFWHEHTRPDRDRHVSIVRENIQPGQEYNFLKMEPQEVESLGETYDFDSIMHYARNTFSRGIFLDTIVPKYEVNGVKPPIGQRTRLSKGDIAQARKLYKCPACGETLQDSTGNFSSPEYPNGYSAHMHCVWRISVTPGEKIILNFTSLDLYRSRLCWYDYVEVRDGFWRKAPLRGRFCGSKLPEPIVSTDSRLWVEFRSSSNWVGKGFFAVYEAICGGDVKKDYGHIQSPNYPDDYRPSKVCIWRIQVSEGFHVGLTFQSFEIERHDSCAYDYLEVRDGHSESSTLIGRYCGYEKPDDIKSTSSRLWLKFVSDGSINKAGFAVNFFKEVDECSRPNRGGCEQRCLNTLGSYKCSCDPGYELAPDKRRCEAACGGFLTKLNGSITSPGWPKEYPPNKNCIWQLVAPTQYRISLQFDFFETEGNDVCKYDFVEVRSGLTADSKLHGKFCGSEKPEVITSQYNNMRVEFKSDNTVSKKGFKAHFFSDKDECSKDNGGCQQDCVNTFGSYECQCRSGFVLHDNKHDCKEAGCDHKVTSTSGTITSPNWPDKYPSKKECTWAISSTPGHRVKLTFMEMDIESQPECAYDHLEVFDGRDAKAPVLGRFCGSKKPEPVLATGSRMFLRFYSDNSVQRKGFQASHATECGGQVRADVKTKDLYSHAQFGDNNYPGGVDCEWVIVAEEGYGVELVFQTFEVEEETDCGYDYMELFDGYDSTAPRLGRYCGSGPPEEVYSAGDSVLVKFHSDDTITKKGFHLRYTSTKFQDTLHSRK

SMILES | PCP-inhibiting properties
CC(C)(C)OC(=O)NC1CN(c2ccc(-c3noc([C@H](CCCC4CCCCC4)CC(=O)NO)n3)cn2)C1 [Example 77] | exhibit PCP-inhibiting properties
NC1CN(c2ccc(-c3noc([C@H](CCCC4CCCCC4)CC(=O)NO)n3)cn2)C1 [Example 78] | exhibit PCP-inhibiting properties
CC(C)COC(=O)N(C)c1ccc(-c2noc([C@H](CCCC3CCCCC3)CC(=O)NO)n2)cn1 [Example 79] | exhibit PCP-inhibiting properties
O=C(C[C@@H](CCCC1CCCCC1)c1ncc(-c2cccnc2)o1)NO [Example 80] | exhibit PCP-inhibiting properties
O=C(C[C@@H](CCCC1CCCCC1)c1noc(-c2ccncc2)n1)NO [Example 81] | exhibit PCP-inhibiting properties
